Laboratory results published in the supplement of paper PMC10849652.
The list shows a part of the results.

The chains behind the UniProt entries cited, without tags or fusion partners. Where a name states a change or a piece, a line headed by the entry shows the natural chain unless it says otherwise.
UniProt Q9C0E2: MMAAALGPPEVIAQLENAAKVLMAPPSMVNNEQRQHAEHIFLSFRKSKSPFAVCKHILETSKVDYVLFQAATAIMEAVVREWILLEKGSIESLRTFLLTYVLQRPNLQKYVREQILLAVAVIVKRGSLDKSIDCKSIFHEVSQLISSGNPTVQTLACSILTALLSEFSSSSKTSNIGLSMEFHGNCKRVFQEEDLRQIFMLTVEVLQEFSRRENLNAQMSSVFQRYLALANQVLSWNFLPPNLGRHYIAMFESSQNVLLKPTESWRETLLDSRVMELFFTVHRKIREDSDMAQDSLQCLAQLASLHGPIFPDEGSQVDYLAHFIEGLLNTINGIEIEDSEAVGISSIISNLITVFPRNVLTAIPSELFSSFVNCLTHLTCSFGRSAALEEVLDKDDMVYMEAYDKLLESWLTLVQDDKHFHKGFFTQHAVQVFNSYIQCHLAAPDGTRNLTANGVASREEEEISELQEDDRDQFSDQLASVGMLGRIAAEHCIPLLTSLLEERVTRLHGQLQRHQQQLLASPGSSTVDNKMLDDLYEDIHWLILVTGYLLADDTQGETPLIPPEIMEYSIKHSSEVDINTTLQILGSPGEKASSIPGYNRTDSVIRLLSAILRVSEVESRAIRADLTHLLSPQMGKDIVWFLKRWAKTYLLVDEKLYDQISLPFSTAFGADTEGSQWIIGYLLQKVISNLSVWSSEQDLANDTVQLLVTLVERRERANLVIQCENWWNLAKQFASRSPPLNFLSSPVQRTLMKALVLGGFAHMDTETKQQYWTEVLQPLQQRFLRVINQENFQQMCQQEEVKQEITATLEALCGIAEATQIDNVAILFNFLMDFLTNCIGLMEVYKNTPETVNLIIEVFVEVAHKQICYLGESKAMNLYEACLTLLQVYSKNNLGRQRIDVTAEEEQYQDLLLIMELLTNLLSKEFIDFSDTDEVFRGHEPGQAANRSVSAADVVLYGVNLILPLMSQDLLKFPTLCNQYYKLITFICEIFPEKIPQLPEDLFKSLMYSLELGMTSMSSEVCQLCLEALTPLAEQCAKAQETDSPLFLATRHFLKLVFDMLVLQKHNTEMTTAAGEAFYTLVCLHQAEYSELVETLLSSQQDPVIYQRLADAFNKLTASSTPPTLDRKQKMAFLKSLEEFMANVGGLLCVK
UniProt Q9NUD5: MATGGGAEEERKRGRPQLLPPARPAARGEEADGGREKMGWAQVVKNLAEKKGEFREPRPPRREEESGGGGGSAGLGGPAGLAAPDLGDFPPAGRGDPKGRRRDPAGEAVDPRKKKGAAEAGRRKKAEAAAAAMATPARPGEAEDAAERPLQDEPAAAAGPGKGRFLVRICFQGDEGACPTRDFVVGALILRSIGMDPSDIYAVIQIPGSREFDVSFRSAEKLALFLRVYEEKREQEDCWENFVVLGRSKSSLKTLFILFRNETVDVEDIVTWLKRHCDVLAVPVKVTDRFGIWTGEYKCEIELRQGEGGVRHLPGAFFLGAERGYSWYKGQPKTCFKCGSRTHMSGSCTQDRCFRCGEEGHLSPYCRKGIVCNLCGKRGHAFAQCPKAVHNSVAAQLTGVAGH
UniProt Q8IWT0: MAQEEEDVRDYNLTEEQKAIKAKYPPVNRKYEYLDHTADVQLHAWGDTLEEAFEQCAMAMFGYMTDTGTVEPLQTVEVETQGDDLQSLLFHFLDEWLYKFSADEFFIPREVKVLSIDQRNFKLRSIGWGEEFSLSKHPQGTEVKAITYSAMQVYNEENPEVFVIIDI
UniProt Q969M3: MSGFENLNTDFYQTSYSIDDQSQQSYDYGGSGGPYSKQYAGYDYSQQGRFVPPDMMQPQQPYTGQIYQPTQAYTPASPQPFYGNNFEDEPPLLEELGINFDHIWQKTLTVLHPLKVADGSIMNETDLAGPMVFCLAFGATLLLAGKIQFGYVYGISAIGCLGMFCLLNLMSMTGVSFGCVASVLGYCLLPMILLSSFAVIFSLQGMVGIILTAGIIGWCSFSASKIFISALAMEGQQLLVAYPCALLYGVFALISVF
UniProt P63104: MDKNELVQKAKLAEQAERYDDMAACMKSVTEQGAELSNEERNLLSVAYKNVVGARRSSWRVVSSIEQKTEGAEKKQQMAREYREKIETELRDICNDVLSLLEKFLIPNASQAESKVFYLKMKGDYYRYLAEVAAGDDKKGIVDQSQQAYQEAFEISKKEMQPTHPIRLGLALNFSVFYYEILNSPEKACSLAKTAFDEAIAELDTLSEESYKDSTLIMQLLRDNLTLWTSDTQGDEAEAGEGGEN
UniProt O95405: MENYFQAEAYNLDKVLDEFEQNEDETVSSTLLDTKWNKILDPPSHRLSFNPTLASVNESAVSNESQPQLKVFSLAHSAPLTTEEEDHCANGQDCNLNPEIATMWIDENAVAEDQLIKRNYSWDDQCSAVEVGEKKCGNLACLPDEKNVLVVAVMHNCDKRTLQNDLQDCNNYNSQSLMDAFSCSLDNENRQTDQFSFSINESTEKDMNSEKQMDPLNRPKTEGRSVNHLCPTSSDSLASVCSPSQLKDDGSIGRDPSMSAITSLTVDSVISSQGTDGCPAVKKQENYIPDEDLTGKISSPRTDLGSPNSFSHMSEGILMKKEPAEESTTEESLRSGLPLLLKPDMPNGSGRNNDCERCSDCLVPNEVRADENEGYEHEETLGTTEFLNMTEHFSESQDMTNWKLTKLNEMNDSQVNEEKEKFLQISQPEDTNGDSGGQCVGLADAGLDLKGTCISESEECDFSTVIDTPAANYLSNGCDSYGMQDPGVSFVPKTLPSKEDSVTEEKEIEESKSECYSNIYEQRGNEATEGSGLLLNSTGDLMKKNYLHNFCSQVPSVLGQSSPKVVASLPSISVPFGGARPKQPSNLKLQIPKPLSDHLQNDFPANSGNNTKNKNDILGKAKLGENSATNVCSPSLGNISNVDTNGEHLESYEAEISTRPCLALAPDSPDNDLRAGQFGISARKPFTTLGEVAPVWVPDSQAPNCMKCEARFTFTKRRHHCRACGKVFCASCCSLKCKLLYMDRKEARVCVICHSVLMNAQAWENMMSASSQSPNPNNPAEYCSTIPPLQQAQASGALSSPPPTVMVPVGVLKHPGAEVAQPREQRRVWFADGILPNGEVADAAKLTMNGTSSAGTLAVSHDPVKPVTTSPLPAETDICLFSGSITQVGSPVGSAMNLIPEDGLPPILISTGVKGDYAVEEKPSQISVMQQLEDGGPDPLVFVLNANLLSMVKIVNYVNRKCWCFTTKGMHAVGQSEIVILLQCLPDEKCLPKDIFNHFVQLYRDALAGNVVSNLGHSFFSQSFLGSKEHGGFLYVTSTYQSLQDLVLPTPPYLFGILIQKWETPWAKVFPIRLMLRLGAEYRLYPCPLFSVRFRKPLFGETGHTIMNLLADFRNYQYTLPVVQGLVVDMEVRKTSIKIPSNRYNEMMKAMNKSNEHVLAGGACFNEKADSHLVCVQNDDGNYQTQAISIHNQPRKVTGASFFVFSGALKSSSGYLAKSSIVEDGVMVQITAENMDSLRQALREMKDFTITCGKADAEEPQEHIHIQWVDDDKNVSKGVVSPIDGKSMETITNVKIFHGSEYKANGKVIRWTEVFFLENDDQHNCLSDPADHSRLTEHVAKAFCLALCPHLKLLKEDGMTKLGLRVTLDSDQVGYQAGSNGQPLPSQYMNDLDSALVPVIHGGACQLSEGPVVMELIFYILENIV
UniProt Q9HCC9: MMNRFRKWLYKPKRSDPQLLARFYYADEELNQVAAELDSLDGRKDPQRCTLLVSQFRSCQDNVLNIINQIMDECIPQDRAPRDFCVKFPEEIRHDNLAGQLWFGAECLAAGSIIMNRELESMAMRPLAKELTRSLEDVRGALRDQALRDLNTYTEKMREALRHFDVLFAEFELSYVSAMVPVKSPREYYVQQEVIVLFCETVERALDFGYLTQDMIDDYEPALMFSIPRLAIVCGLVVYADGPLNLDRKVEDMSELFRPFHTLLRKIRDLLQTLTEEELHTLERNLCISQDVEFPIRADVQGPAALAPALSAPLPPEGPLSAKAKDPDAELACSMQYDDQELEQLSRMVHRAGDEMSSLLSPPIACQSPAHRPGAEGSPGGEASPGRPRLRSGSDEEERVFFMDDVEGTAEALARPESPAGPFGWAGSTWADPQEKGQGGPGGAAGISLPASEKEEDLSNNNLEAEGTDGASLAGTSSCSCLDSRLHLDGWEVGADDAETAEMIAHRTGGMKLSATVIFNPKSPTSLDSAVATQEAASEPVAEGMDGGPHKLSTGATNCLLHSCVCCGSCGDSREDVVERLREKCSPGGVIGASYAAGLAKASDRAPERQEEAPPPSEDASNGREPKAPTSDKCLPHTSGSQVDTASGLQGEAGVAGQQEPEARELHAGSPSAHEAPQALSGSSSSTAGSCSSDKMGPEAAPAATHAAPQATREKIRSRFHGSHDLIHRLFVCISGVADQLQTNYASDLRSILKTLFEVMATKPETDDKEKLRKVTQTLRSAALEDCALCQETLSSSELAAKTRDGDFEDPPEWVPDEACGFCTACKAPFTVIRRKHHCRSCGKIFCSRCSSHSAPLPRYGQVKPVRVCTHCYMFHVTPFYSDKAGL
UniProt Q13426: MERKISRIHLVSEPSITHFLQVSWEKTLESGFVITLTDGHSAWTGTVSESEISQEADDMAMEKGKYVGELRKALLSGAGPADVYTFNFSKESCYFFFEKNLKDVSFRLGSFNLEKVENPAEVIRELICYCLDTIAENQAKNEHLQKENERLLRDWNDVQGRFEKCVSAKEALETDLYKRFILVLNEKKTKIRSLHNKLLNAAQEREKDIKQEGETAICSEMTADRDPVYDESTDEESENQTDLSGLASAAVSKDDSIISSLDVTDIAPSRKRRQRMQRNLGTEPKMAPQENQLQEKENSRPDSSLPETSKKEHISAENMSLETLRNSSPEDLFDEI
UniProt Q8IZH2: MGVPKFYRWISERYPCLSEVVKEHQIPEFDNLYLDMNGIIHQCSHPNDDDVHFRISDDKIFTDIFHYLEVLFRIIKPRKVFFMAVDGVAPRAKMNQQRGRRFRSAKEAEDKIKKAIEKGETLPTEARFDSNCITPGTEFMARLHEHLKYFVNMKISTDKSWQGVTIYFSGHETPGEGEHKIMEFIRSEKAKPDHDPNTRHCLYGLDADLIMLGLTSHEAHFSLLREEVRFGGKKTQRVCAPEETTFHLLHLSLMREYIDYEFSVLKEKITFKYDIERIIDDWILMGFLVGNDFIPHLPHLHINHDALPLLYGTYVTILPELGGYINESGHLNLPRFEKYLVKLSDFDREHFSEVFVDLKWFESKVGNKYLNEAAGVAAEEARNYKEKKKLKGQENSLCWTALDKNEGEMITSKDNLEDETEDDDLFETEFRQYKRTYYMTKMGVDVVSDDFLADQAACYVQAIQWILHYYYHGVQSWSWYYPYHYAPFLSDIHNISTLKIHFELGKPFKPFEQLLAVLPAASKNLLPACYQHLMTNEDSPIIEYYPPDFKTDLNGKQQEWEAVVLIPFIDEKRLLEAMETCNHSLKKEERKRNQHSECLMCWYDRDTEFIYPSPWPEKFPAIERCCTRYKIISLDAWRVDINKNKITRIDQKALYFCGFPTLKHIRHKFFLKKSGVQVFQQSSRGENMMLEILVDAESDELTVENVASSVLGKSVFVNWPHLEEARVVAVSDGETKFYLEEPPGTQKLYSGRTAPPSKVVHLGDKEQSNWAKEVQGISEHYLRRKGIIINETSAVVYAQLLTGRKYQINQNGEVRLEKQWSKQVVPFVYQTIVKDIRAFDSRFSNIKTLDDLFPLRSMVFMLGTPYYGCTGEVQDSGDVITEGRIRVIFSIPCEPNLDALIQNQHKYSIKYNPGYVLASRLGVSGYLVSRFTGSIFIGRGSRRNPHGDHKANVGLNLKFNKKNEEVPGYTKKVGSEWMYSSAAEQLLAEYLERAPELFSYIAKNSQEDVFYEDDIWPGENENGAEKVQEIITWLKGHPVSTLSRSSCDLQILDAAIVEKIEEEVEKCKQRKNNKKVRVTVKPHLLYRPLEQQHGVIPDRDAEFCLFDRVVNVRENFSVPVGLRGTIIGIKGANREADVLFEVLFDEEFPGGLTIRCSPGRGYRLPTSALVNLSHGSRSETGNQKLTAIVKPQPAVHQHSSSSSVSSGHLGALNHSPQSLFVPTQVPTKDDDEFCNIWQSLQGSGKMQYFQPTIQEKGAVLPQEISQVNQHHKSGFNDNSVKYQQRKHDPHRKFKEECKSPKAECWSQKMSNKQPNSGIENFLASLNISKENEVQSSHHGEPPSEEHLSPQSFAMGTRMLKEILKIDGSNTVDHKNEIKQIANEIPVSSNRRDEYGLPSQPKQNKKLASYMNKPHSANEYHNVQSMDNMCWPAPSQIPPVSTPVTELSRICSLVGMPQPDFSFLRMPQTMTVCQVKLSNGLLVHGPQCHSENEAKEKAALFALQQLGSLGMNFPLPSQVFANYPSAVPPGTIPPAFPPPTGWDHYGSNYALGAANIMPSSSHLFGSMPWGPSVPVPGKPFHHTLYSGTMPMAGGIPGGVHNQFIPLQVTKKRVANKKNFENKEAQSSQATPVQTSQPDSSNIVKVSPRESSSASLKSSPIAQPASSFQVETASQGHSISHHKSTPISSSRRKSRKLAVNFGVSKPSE

Tests used:
Assay in all cases: log2 fold change, soluble protein after heating vs DMSO (PISA); higher = thermal stabilisation; K562 lysate, 10 uM; active = over 0.2 and 3.5 SD of the protein, either way, in both replicates (recomputed)
vemurafenib = compound: CCCS(=O)(=O)Nc1ccc(F)c(C(=O)c2c[nH]c3ncc(-c4ccc(Cl)cc4)cc23)c1F [vemurafenib]
Outline: (§1)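 Soluble protein was defined as the supernatant remaining after 21,000xg for 90 min, following pooling of heated aliquots and adjustment to 0.5% NP-40 at 4°C. Before that, crude K562 extract at 1 mg/mL protein in PBS pH 7.4 with 1 mM MgCl2 was treated with 10 μM compound for 30 min and heated for 3 min across 48°C-58°C. Quantification used TMTpro 16plex LC-MS/MS with channel sums equalised, and values are log-two fold changes in thermal stability relative to solvent controls from duplicates.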

[1] = compound: CCCS(=O)(=O)Nc1ccc(F)c(C(=O)c2c[nH]c3ncc(Cl)cc23)c1F
Outline: as §1

barasertib = compound: CCN(CCCOc1ccc2c(Nc3cc(CC(=O)Nc4cccc(F)c4)[nH]n3)ncnc2c1)CCOP(=O)(O)O [barasertib]
Outline: as §1

[2] = compound: CC[C@@H]1C(=O)N(C)c2cnc(Nc3ccc(C(=O)NC4CCN(C)CC4)cc3OC)nc2N1C1CCCC1
Outline: as §1

volasertib = compound: CC[C@@H]1C(=O)N(C)c2cnc(Nc3ccc(C(=O)N[C@H]4CC[C@H](N5CCN(CC6CC6)CC5)CC4)cc3OC)nc2N1C(C)C [volasertib]
Outline: as §1

[3] = compound: CCn1c(C(=O)N(C2CC2)C2CC2)cc2c3c(ncn3C)c(Nc3cc(C)n(C)n3)nc21
Outline: as §1

[4] = compound: CCn1cc(-c2ccnc3[nH]c(-c4cccc(CN(C)C)c4)cc23)c(-c2ccc(NC(=O)N(C)C)cc2)n1
Outline: as §1

[5] = compound: CN1CCC(CNc2ccc3ncc(-c4cccc(OC(F)(F)F)c4)n3n2)CC1
Outline: as §1

saracatinib = compound: CN1CCN(CCOc2cc(OC3CCOCC3)c3c(Nc4c(Cl)ccc5c4OCO5)ncnc3c2)CC1 [saracatinib]
Outline: as §1

sotrastaurin = compound: CN1CCN(c2nc(C3=C(c4c[nH]c5ccccc45)C(=O)NC3=O)c3ccccc3n2)CC1 [sotrastaurin]
Outline: as §1

alvocidib = compound: CN1CC[C@H](c2c(O)cc(O)c3c(=O)cc(-c4ccccc4Cl)oc23)[C@H](O)C1 [alvocidib]
Outline: as §1

Tubastatin A = compound: CN1CCc2c(c3ccccc3n2Cc2ccc(C(=O)NO)cc2)C1 [Tubastatin A]
Outline: as §1

[6] = compound: CNC(=O)C1=CC=CC=C1NC2=NC(=NC=C2Cl)NC3=C(C=C(C=C3)N4CCOCC4)OC
Outline: as §1

defactinib = compound: CNC(=O)c1ccc(Nc2ncc(C(F)(F)F)c(NCc3nccnc3N(C)S(C)(=O)=O)n2)cc1 [defactinib]
Outline: as §1

[7] = compound: CNc1nc(-c2ccc3c(N)n[nH]c3c2)cc(N2C[C@@H](C(=O)NC3CCCCC3)CC[C@H]2C)n1
Outline: as §1

encorafenib = compound: COC(=O)N[C@@H](C)CNc1nccc(-c2cn(C(C)C)nc2-c2cc(Cl)cc(NS(C)(=O)=O)c2F)n1 [encorafenib]
Outline: as §1

[8] = compound: COC(=O)[C@H](CCSC)NC(=O)C1=C(C=C(C=C1)NC[C@H](CS)N)C2=CC=CC=C2
Outline: as §1

alisertib = compound: COc1cc(Nc2ncc3c(n2)-c2ccc(Cl)cc2C(c2c(F)cccc2OC)=NC3)ccc1C(=O)O [alisertib]
Outline: as §1

[9] = compound: COc1cc2nc(-c3cc(F)ccc3O)nc(N[C@@H]3CNC[C@H]3C(C)(C)O)c2cc1OC
Outline: as §1

gefitinib = compound: COc1cc2ncnc(Nc3ccc(F)c(Cl)c3)c2cc1OCCCN1CCOCC1 [gefitinib]
Outline: as §1

Measured: log2 fold change

XPO4 (UniProt Q9C0E2)
inactive: vemurafenib -0.028 | [1] 0.008 | barasertib 0.01 | [2] -0.078 | volasertib -0.035 | [3] 0.049 | [4] -0.08 | [5] 0.055 | saracatinib 0.009 | sotrastaurin 0.022 | alvocidib -0.013 | Tubastatin A -0.067 | [6] -0.014 | defactinib -0.008 | [7] -0.037 | encorafenib 0.036 | [8] -0.116 | alisertib -0.028 | [9] -0.012 | gefitinib -0.002

ZCCHC3 (UniProt Q9NUD5)
inactive: vemurafenib -0.003 | [1] 0.019 | barasertib 0.021 | [2] -0.01 | volasertib -0.014 | [3] 0.02 | [4] -0.022 | [5] 0.063 | saracatinib 0.025 | sotrastaurin 0.011 | alvocidib -0.002 | Tubastatin A -0.05 | [6] -0.008 | defactinib 0.013 | [7] -0.01 | encorafenib -0.009 | [8] -0.019 | alisertib 0.028 | [9] 0.008 | gefitinib 0.034

YY1 (UniProt P25490)
inactive: vemurafenib -0.049 | [1] -0.005 | barasertib 0.047 | [2] -0.126 | volasertib 0.011 | [3] 0.054 | [4] 0.097 | [5] -0.122 | saracatinib 0.012 | sotrastaurin -0.043 | alvocidib 0.037 | Tubastatin A -0.017 | [6] 0.001 | defactinib 0.023 | [7] 0.03 | encorafenib 0 | [8] -0.032 | alisertib 0.013 | [9] -0.035 | gefitinib 0.009

ZBTB8OS (UniProt Q8IWT0)
inactive: vemurafenib -0.07 | [1] 0.001 | barasertib 0.023 | [2] -0.064 | volasertib -0.031 | [3] 0.004 | [4] -0.066 | [5] 0.075 | saracatinib -0.024 | sotrastaurin -0.01 | alvocidib -0.026 | Tubastatin A 0.01 | [6] -0.013 | defactinib 0.013 | [7] -0.054 | encorafenib -0.002 | [8] 0.02 | alisertib -0.043 | [9] -0.065 | gefitinib 0.005

YOD1 (UniProt Q5VVQ6)
inactive: vemurafenib -0.012 | [1] 0.015 | barasertib 0.038 | [2] -0.056 | volasertib -0.015 | [3] -0.017 | [4] -0.047 | [5] -0.015 | saracatinib -0.009 | sotrastaurin 0.05 | alvocidib -0.004 | Tubastatin A 0.078 | [6] -0.01 | defactinib -0.028 | [7] -0.014 | encorafenib 0.013 | [8] 0.008 | alisertib 0.022 | [9] -0.044 | gefitinib -0.025

YIPF5 isoform 3 (UniProt Q969M3)
inactive: vemurafenib -0.106 | [1] -0.049 | barasertib 0.02 | [2] 0.006 | volasertib -0.032 | [3] 0.005 | [4] -0.018 | [5] 0.148 | saracatinib -0.036 | sotrastaurin 0.134 | alvocidib -0.02 | Tubastatin A 0.048 | [6] 0.051 | defactinib 0.042 | [7] 0.037 | encorafenib 0.064 | [8] -0.04 | alisertib -0.124 | [9] 0.057 | gefitinib 0.036

YTHDF2 (UniProt Q9Y5A9)
inactive: vemurafenib -0.015 | [1] 0.019 | barasertib 0.108 | [2] 0.037 | volasertib -0.079 | [3] 0.129 | [4] 0.163 | [5] -0.107 | saracatinib 0.062 | sotrastaurin -0.102 | alvocidib 0.032 | Tubastatin A -0.163 | [6] -0.007 | defactinib 0.019 | [7] -0.078 | encorafenib 0.123 | [8] -0.064 | alisertib 0.028 | [9] -0.006 | gefitinib 0.01

ZC3H8 (UniProt Q8N5P1)
inactive: vemurafenib 0.008 | [1] 0.037 | barasertib 0.026 | [2] 0.014 | volasertib 0.018 | [3] -0.048 | [4] -0.021 | [5] 0 | saracatinib -0.003 | sotrastaurin -0.019 | alvocidib -0.002 | Tubastatin A 0.04 | [6] 0.046 | defactinib -0.006 | [7] 0.01 | encorafenib -0.013 | [8] -0.016 | alisertib -0.027 | [9] 0.035 | gefitinib 0.033

YWHAZ (UniProt P63104)
inactive: vemurafenib -0.031 | [1] 0.012 | barasertib -0.055 | [2] -0.016 | volasertib 0.015 | [3] -0.016 | [4] -0.005 | [5] 0.045 | saracatinib 0.023 | sotrastaurin -0.032 | alvocidib -0.003 | Tubastatin A 0.012 | [6] -0.023 | defactinib -0.011 | [7] -0.01 | encorafenib -0.025 | [8] -0.026 | alisertib 0.004 | [9] -0.007 | gefitinib -0.013

ZCCHC17 (UniProt Q9NP64)
inactive: vemurafenib 0.109 | [1] 0.091 | barasertib -0.063 | [2] -0.063 | volasertib -0.044 | [3] 0.036 | [4] 0.058 | [5] -0.07 | saracatinib 0.055 | sotrastaurin -0.14 | alvocidib 0.047 | Tubastatin A 0.057 | [6] 0.007 | defactinib 0.146 | [7] 0.014 | encorafenib -0.095 | [8] 0.061 | alisertib -0.013 | [9] -0.033 | gefitinib -0.112

ZFYVE9 (UniProt O95405)
inactive: vemurafenib 0.011 | [1] 0.039 | barasertib 0.083 | [2] -0.03 | volasertib 0.009 | [3] -0.064 | [4] 0 | [5] 0.012 | saracatinib -0.011 | sotrastaurin 0.018 | alvocidib -0.039 | Tubastatin A 0.01 | [6] 0.028 | defactinib -0.059 | [7] -0.043 | encorafenib 0.034 | [8] 0.114 | alisertib 0.007 | [9] -0.004 | gefitinib 0.09

ZFYVE28 (UniProt Q9HCC9)
inactive: vemurafenib -0.054 | [1] -0.04 | barasertib 0.108 | [2] 0.045 | volasertib 0.259 | [3] -0.024 | [4] -0.033 | [5] 0.056 | saracatinib -0.105 | sotrastaurin 0.029 | alvocidib 0.019 | Tubastatin A 0.052 | [6] -0.095 | defactinib 0.054 | [7] 0.076 | encorafenib 0.007 | [8] 0.06 | alisertib -0.086 | [9] 0.085 | gefitinib 0.201

YWHAG (UniProt P61981)
inactive: vemurafenib -0.037 | [1] -0.02 | barasertib -0.033 | [2] 0.063 | volasertib 0.009 | [3] 0.007 | [4] -0.002 | [5] 0.036 | saracatinib 0.017 | sotrastaurin -0.032 | alvocidib -0.02 | Tubastatin A 0.007 | [6] -0.016 | defactinib 0.027 | [7] 0.009 | encorafenib -0.014 | [8] -0.027 | alisertib -0.044 | [9] 0.007 | gefitinib -0.083

YTHDF1 (UniProt Q9BYJ9)
inactive: vemurafenib 0.11 | [1] 0.041 | barasertib 0.131 | [2] 0.01 | volasertib -0.013 | [3] -0.008 | [4] -0.015 | [5] -0.03 | saracatinib 0.141 | sotrastaurin 0.016 | alvocidib 0.033 | Tubastatin A -0.125 | [6] -0.008 | defactinib 0.1 | [7] -0.083 | encorafenib -0.031 | [8] 0.129 | alisertib 0.005 | [9] 0.047 | gefitinib 0.026

XRCC4 (UniProt Q13426)
inactive: vemurafenib 0 | [1] 0.02 | barasertib 0.005 | [2] -0.009 | volasertib 0.025 | [3] 0.011 | [4] -0.096 | [5] 0.067 | saracatinib 0.014 | sotrastaurin -0.018 | alvocidib -0.034 | Tubastatin A -0.021 | [6] -0.046 | defactinib 0.015 | [7] -0.042 | encorafenib 0.025 | [8] -0.018 | alisertib -0.009 | [9] -0.009 | gefitinib 0.029

XRN1 (UniProt Q8IZH2)
inactive: vemurafenib 0.052 | [1] 0.021 | barasertib -0.012 | [2] -0.131 | volasertib -0.015 | [3] 0.004 | [4] 0.059 | [5] -0.016 | saracatinib -0.026 | sotrastaurin 0.036 | alvocidib 0.026 | Tubastatin A 0.009 | [6] -0.017 | defactinib 0.086 | [7] -0.008 | encorafenib 0.023 | [8] 0.064 | alisertib -0.006 | [9] 0.064 | gefitinib -0.017
